# Data published in the supplement of paper PMC8728848.
# Some of the results follow.
# B1: PX9961Q-bfa-504-27-504 (Bacteroides fragilis) (protein)
# chain: NDWLDRKPADGIPSEDAITNYNDALTARTGMYDGIQGNSNATSYYGARMFYYGDVRADDMQARTQGMRSSSCYEMLYTVDDAPNMWNIPYNVIRRANRLIEAINEKKVTDATEAQIGKIYSEALVVRALVHFDLVRIYGMPYTADNGASLGVPVIVKPLERNDLPSRNTVAEVYTQVITDLTDAINSGYLAKDQTPGYINEWAAKALLTRVYLTKGDNENALKVAEDIITNSPYKLWTNEEYVNAWYKSNGAHTNEMIFEVVNASNDDWTDRNGIAYLLNENGYADAIVTKSFMNMLSQDPKDVRIGMVLPAQYDKDLQEEYGDAKIFINKFPADKDDVGEMRLNNLPLLRLSEVYLSAAEAAAKLGGHQDKAAKYLNEIVQRANPEAKAISEADATVERIILERRKEMIGEGQRYFDALRNNETIVRYKDEGDKGYHYSLIKESQSFDRTYFRAILPIPVDETNVNPNLRAQQNPGY
# Legend:
# Experiment in all cases: glycan array binding signal (z-score within array); higher = stronger binding
# Settings in all cases: glycan notation: IUPAC condensed, linker removed
# [1] = biological target: Fuc(a1-3)[Gal3S(b1-4)]GlcNAc6S
# Summary of the method: (§1)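 Glycan array binding is given as a within-array Z-score, which can be read as non-binding when negative. The arrays, 3228 of them, came from the Consortium for Functional Glycomics database and were retained only where the protein sequence was available. Z-scores were averaged across arrays of the same protein sequence at different concentrations or buffers and across linkers.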
# [2] = biological target: Fuc(a1-3)[GalNAc(b1-4)]GlcNAc
# Summary of the method: as §1
# [3] = biological target: Fuc(a1-3)[GalNAc(b1-4)]GlcNAc6S
# Summary of the method: as §1
# [4] = biological target: Fuc(a1-4)GlcNAc
# Summary of the method: as §1
# [5] = biological target: Fuc(b1-3)GlcNAc
# Summary of the method: as §1
# [6] = biological target: Gal(a1-2)Gal
# Summary of the method: as §1
# [7] = biological target: Gal(a1-3)Gal
# Summary of the method: as §1
# [8] = biological target: Gal(a1-3)Gal(b1-3)GlcNAc
# Summary of the method: as §1
# [9] = biological target: Gal(a1-3)Gal(b1-3)GlcNAc(b1-2)Man
# Summary of the method: as §1
# [10] = biological target: Gal(a1-3)Gal(b1-3)GlcNAc(b1-2)Man(a1-3)[Gal(a1-3)Gal(b1-3)GlcNAc(b1-2)Man(a1-6)]Man(b1-4)GlcNAc(b1-4)GlcNAc
# Summary of the method: as §1
# [11] = biological target: Gal(a1-3)Gal(b1-3)GlcNAc(b1-3)GalNAc
# Summary of the method: as §1
# [12] = biological target: Gal(a1-3)Gal(b1-3)GlcNAc(b1-6)GalNAc
# Summary of the method: as §1
# [13] = biological target: Gal(a1-3)Gal(b1-3)[Fuc(a1-4)]GlcNAc(b1-2)Man(a1-3)[Gal(a1-3)Gal(b1-3)[Fuc(a1-4)]GlcNAc(b1-2)Man(a1-6)]Man(b1-4)GlcNAc(b1-4)GlcNAc
# Summary of the method: as §1
# [14] = biological target: Gal(a1-3)Gal(b1-4)Glc
# Summary of the method: as §1
# [15] = biological target: Gal(a1-3)Gal(b1-4)GlcNAc
# Summary of the method: as §1
# [16] = biological target: Gal(a1-3)Gal(b1-4)GlcNAc(b1-2)Man
# Summary of the method: as §1
# [17] = biological target: Gal(a1-3)Gal(b1-4)GlcNAc(b1-2)Man(a1-3)[Gal(a1-3)Gal(b1-4)GlcNAc(b1-2)Man(a1-6)]Man(b1-4)GlcNAc(b1-4)GlcNAc
# Summary of the method: as §1
# [18] = biological target: Gal(a1-3)Gal(b1-4)GlcNAc(b1-3)GalNAc
# Summary of the method: as §1
# [19] = biological target: Gal(a1-3)Gal(b1-4)GlcNAc(b1-6)GalNAc
# Summary of the method: as §1
# [20] = biological target: Gal(a1-3)Gal(b1-4)[Fuc(a1-3)]GlcNAc
# Summary of the method: as §1
# [21] = biological target: Gal(a1-3)Gal(b1-4)[Fuc(a1-3)]GlcNAc(b1-2)Man(a1-3)[Gal(a1-3)Gal(b1-4)[Fuc(a1-3)]GlcNAc(b1-2)Man(a1-6)]Man(b1-4)GlcNAc(b1-4)GlcNAc
# Summary of the method: as §1
# [22] = biological target: Gal(a1-3)GalNAc
# Summary of the method: as §1
# [23] = biological target: Gal(a1-3)[Gal(a1-4)]Gal(b1-4)GlcNAc
# Summary of the method: as §1
# [24] = biological target: Gal(a1-4)Gal(b1-3)GlcNAc(b1-2)Man(a1-3)[Gal(a1-4)Gal(b1-3)GlcNAc(b1-2)Man(a1-6)]Man(b1-4)GlcNAc(b1-4)GlcNAc
# Summary of the method: as §1
# [25] = biological target: Gal(a1-4)Gal(b1-4)Glc
# Summary of the method: as §1
# [26] = biological target: Gal(a1-4)Gal(b1-4)GlcNAc
# Summary of the method: as §1
# [27] = biological target: Gal(a1-4)Gal(b1-4)GlcNAc(b1-2)Man(a1-3)[Gal(a1-4)Gal(b1-4)GlcNAc(b1-2)Man(a1-6)]Man(b1-4)GlcNAc(b1-4)GlcNAc
# Summary of the method: as §1
# [28] = biological target: Gal(a1-4)Gal(b1-4)GlcNAc(b1-3)Gal(b1-4)Glc
# Summary of the method: as §1
# [29] = biological target: Gal(a1-4)GlcNAc
# Summary of the method: as §1
# [30] = biological target: Gal(a1-6)Glc
# Summary of the method: as §1
# [31] = biological target: Gal(b1-2)Gal
# Summary of the method: as §1
# [32] = biological target: Gal(b1-3)Gal
# Summary of the method: as §1
# [33] = biological target: Gal(b1-3)Gal(b1-4)GlcNAc
# Summary of the method: as §1
# [34] = biological target: Gal(b1-3)GalNAc
# Summary of the method: as §1
# [35] = biological target: Gal(b1-3)GalNAc(a1-3)[Fuc(a1-2)]Gal(b1-4)Glc
# Summary of the method: as §1
# [36] = biological target: Gal(b1-3)GalNAc(a1-3)[Fuc(a1-2)]Gal(b1-4)GlcNAc
# Summary of the method: as §1
# [37] = biological target: Gal(b1-3)GalNAc(b1-3)Gal
# Summary of the method: as §1
binder,measurement,setting,value
B1,glycan array binding signal (z-score),[1],-0.537
same,glycan array binding signal (z-score),[2],0.276
same,glycan array binding signal (z-score),[3],-0.385
same,glycan array binding signal (z-score),[4],-0.039
same,glycan array binding signal (z-score),[5],-0.126
same,glycan array binding signal (z-score),[6],0.399
same,glycan array binding signal (z-score),[7],0.757
same,glycan array binding signal (z-score),[8],0.784
same,glycan array binding signal (z-score),[9],-0.818
same,glycan array binding signal (z-score),[10],0.772
same,glycan array binding signal (z-score),[11],-0.341
same,glycan array binding signal (z-score),[12],0.225
same,glycan array binding signal (z-score),[13],8.13
same,glycan array binding signal (z-score),[14],-0.621
same,glycan array binding signal (z-score),[15],-0.489
same,glycan array binding signal (z-score),[16],0.2
same,glycan array binding signal (z-score),[17],-0.179
same,glycan array binding signal (z-score),[18],-0.389
same,glycan array binding signal (z-score),[19],0.211
same,glycan array binding signal (z-score),[20],-0.616
same,glycan array binding signal (z-score),[21],1.6
same,glycan array binding signal (z-score),[22],-0.069
same,glycan array binding signal (z-score),[23],-0.251
same,glycan array binding signal (z-score),[24],2.6
same,glycan array binding signal (z-score),[25],0.623
same,glycan array binding signal (z-score),[26],0.049
same,glycan array binding signal (z-score),[27],0.691
same,glycan array binding signal (z-score),[28],-0.875
same,glycan array binding signal (z-score),[29],-0.289
same,glycan array binding signal (z-score),[30],0.597
same,glycan array binding signal (z-score),[31],0.024
same,glycan array binding signal (z-score),[32],-0.179
same,glycan array binding signal (z-score),[33],-0.515
same,glycan array binding signal (z-score),[34],0.027
same,glycan array binding signal (z-score),[35],0.361
same,glycan array binding signal (z-score),[36],-0.249
same,glycan array binding signal (z-score),[37],-0.301

# Reprinted at random: 2 entries already listed
binder,measurement,setting,value
B1,glycan array binding signal (z-score),[5],-0.126
same,glycan array binding signal (z-score),[26],0.049
